From PubChem BioAssay AID504834 (National Center for Advancing Translational Sciences (NCATS), 2011)
“And” between values parts separate entries of the source, which are not always exact repeats. Equal values may be shown once. Out of some 320,000 compounds screened, about 22,000 (6.9%) were called active. The inconclusive results got no clear call from the source; some entries with a clear call stand among them for comparison. Calls follow the shape of the dose curve; as a rule, active = well fitted inhibition curve with a large enough effect; inconclusive = small, poorly fitted or top-dose-only effect, or another doubt; inactive = no such curve, though single readings can be large or run the other way. A potency beside an inconclusive call is a rough fit, not a confirmed value.

Test: Primary qHTS for delayed death inhibitors of the malarial parasite plastid, 96 hour incubation
Details: P. falciparum luciferase reporter growth; series mostly up to 28.7 µM; activity change, negative = inhibition: at the top concentration
Summary of the method: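 Two parasite generations (96 h, 37 C, 5% CO2) of compound exposure in infected erythrocytes (0.05% parasitemia, 2% hematocrit). Luciferase-reporter P. falciparum; decreased luminescence indicates inhibited growth, aimed at apicoplast-acting delayed death.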
% is scaled to controls: 0 for no effect and ±100 for the full control effect; potency is read from the fitted curve at half-maximal effect.

| SMILES | Potency | activity change, negative = inhibition |
| --- | --- | --- |
| CCC(CC)C(=O)Nc1ccc(Sc2ccc([N+](=O)[O-])cc2)cc1 | inconclusive: 2.94 µM [inhibitor, full curve, poor fit] |  |
| Cc1cccc(C2=N/C(=C\c3cccs3)C(=O)O2)c1 | inconclusive: 1.85 µM [inhibitor, single point] |  |
| COCCCNC(=O)c1cccc(NC(=O)c2ccccc2)c1 | inconclusive: 18.5 µM [inhibitor, single point] |  |
| CO/C([O-])=N/c1c[n+](-c2ccc(Cl)cc2)no1 |  | inactive: 12.4% |
| Cc1nn(C)c(C)c1/C=C1/CC2C3CC=C4CC(O)CCC4(C)C3CCC2(C)C1=O (centres undefined) | inconclusive: 11.7 µM [inhibitor, single point] |  |
| CCOc1ccc(-c2cc(C(=O)N/N=C/c3cccnc3)c3ccccc3n2)cc1 | inconclusive: 16.5 µM [inhibitor, single point] |  |
| Cc1cc(C)cc(N(CC(=O)NC2CCCC2)C(=O)CCC(=O)Nc2cc(C)ccn2)c1 | inconclusive: 8.28 µM [inhibitor, partial curve] |  |
| CCN(CC)S(=O)(=O)c1ccc(S(=O)(=O)N2CCCC(C(=O)NC3CC3)C2)cc1 (centres undefined) | inconclusive: 13.1 µM [inhibitor, partial curve] |  |
| O=S1(=O)N=C(N2CCN(Cc3ccccc3)CC2)c2ccccc21 | inconclusive: 13.1 µM [inhibitor, partial curve, poor fit] |  |
| CC(C)(C)c1ccc(C(=O)NC(=S)Nc2sc3c(c2C#N)CCC3)cc1 |  | inactive: 35.1% |
| NCCc1nnc(SCC(=O)c2ccc(Cl)cc2)o1 |  | inactive: 24.3% |
| O=C1CCCCCN1Sc1ccccc1 | inconclusive: 18.5 µM [inhibitor, single point] |  |
| Clc1ccc(COC(Cn2ccnc2)c2ccc(Cl)cc2Cl)c(Cl)c1 (centres undefined) | active: 1.81 µM and active: 1.65 µM |  |
| COc1cccc(-c2ccc3nnc(SCC(=O)N4CCCC4)n3n2)c1 | inconclusive: 14.7 µM [inhibitor, single point] |  |
| Cc1ccccc1NC1=C/C(=N\S(=O)(=O)c2ccc(C(=O)O)cc2)c2ccccc2C1=O | inconclusive: 18.5 µM [inhibitor, single point] |  |
| CC(NC(=O)c1cc(F)c(F)c(F)c1F)c1ccc(-n2ccnc2)cc1 (centres undefined) |  | inactive: -4.17% |
| COc1ccc(C)cc1NC(=O)CCc1ccc(S(=O)(=O)N2CCOCC2)cc1 | inconclusive: 11.7 µM [inhibitor, partial curve, poor fit] |  |
| O=[N+]([O-])c1ccc(N/N=C\c2ccccc2OCc2ccccc2)cc1 |  | inactive: 434% |
| CCOC(=O)CSc1nc(N2CCOCC2)c2c(c1C#N)CC(C(C)C)OC2 (centres undefined) | inconclusive: 10.4 µM [inhibitor, partial curve] |  |
| CCCC1(C(=O)OCC)NC(c2cc(OC)c(OC)c(OC)c2)C2C(=O)N(CC)C(=O)C21 (centres undefined) |  | inactive: -27.2% |
| CCOP(=O)(OCC)c1nc(-c2ccc(OC)cc2)oc1N1CCOCC1 |  | inactive: -3.27% |
| O=C(Nc1ccc(N2CCCC2)cc1)c1cc(Br)ccc1Cl | inconclusive: 2.62 µM [inhibitor, full curve] |  |
| Cc1ccc(CN2CCC(CNC(=O)c3ccc(NC(=O)C4=CSCCO4)cc3)CC2)cc1 | inconclusive: 18.5 µM [inhibitor, single point] |  |

| SMILES | Potency | activity change, negative = inhibition |
| --- | --- | --- |
| Cc1c2cnn(CC(=O)NCc3ccccn3)c(=O)c2c(C)n1Cc1ccc(Cl)cc1 | inconclusive: 6.57 µM [inhibitor, partial curve] |  |
| Cc1ccccc1NC(=O)CCC(=O)N/N=C/c1cc([N+](=O)[O-])ccc1O | inconclusive: 18.5 µM [inhibitor, single point] |  |
| C[C@]12C=CC(=O)C=C1CC[C@@H]1[C@@H]2C(=O)C[C@@]2(C)[C@H]1CC[C@]2(O)C(=O)COC(=O)CCC(=O)O |  | inactive: -4.8% |
| CCCCSc1nnc([C@@H]2CCCN2C(=O)OC(C)(C)C)o1 |  | inactive: -29.6% |
| Cc1nnc(SCc2c(Cl)cccc2[N+](=O)[O-])s1 | inconclusive: 10.4 µM [inhibitor, single point] |  |
| c1cncc(CSc2ccc(-c3cccnc3)nn2)c1 |  | inactive: -10.2% |
| Cc1ccc(C(=O)NCCCNC(=O)c2cccnc2)cc1 | inconclusive: 3.29 µM [inhibitor, partial curve, poor fit] |  |
| Cn1c(Cn2c(=O)sc3ccccc32)nnc1SCC(=O)N1CCCCCC1 | inconclusive: 5.22 µM [inhibitor, partial curve, poor fit] |  |
| COc1ccc(OC)c(NC(=O)Cn2nc(C)c3ccccc3c2=O)c1 | inconclusive: 18.5 µM [inhibitor, single point] |  |
| O=C(Cc1n[nH]c(=O)c2ccccc12)OCC(=O)c1ccc(F)c(F)c1 |  | inactive: 30.6% |
| FC(F)(F)c1ccccc1NC(=S)NN=C1CCCCCC1 | inconclusive: 1.85 µM [inhibitor, full curve] |  |
| Cc1nc2sc(C(c3ccc(F)cc3)N3CCOCC3)c(O)n2n1 (centres undefined) | inconclusive: 10.4 µM [inhibitor, single point] |  |
| CCOC(=O)N1CCN(CC(=O)Nc2ccc(C)c(Br)c2)CC1 | inconclusive: 9.28 µM [inhibitor, partial curve, poor fit] |  |
| O=C(Oc1cccc(C(=S)N2CCOCC2)c1)c1cccc(Cl)c1 | inconclusive: 8.28 µM [inhibitor, partial curve] |  |
| CN=C(NC)SC1CC(=O)N(c2ccccc2)C1=O (centres undefined) | inconclusive: 10.4 µM [inhibitor, single point] |  |
| COc1ccc(NC(=S)NCC2CCCO2)c(C)c1 (centres undefined) |  | inactive: 8.26% |
| CCOc1cc(/C=N\NC(=O)c2ccc(NC(=O)C(C)(C)C)cc2)ccc1OC(=O)c1cccc(C)c1 | inconclusive: 11.7 µM [inhibitor, single point] |  |
| COc1cnc(SCCC(F)=C(F)F)[nH]c1=O | inconclusive: 0.117 µM [inhibitor, full curve] |  |
| CCc1nc(CN2CCN(Cc3ccc(F)c(F)c3)C(CCO)C2)c(C)[nH]1 (centres undefined) | inconclusive: 10.4 µM [inhibitor, single point] |  |
| Cc1cc2oc(=O)cc(CN(C)Cc3ccc(OC(F)F)cc3)c2cc1Cl | active: 2.62 µM |  |
| COCCCn1c(SCC(=O)NC2CCCCC2)nnc1-c1ccco1 | active: 2.33 µM |  |
| COc1ccc(/C=C/C(=O)c2cc(Br)ccc(=O)c2O)cc1 | active: 10.4 µM |  |
| Cc1nnc(SC(C)C(=O)Nc2ccc(S(=O)(=O)NC3CCCCC3)cc2)s1 (centres undefined) |  | inactive: -8.76% |

Looked up above:
NCCc1nnc(SCC(=O)c2ccc(Cl)cc2)o1 | activity change, negative = inhibition: inactive: 24.3%
O=S1(=O)N=C(N2CCN(Cc3ccccc3)CC2)c2ccccc21 | Potency: inconclusive: 13.1 µM [inhibitor, partial curve, poor fit]

The list continues:

| SMILES | Potency | activity change, negative = inhibition |
| --- | --- | --- |
| S=C(NCCc1ccccc1)NC1CC2CCC(C1)N2Cc1ccccc1 (centres undefined) |  | inactive: -26.9% |
| Cc1ccc2nc(NC(=O)CSc3nc(=O)n(CCCN(C)C)c4c3CCC4)sc2c1 | inconclusive: 18.5 µM [inhibitor, single point] |  |
| O=C(O)CCC(=O)Nc1ccc(/C=C/C(=O)C2CC2)cc1 |  | inactive: 3.59% |
| O=C(NCc1ccco1)c1nn(-c2ccccc2)c(=O)c2ccccc12 | inconclusive: 18.5 µM [inhibitor, single point] |  |
| Cc1ccc(F)c(CNC(=O)C2CCC(=O)N(Cc3ccccn3)C2)c1F (centres undefined) | inconclusive: 20.8 µM [inhibitor, single point] |  |
| O=C(CSc1nnc(-c2ccco2)o1)c1ccc([N+](=O)[O-])cc1 |  | inactive: -4.15% |
| COc1ccc(/C=C/c2nc(S(=O)(=O)c3ccccc3)c(NCCCN(C)C)o2)cc1OC | inconclusive: 20.8 µM [inhibitor, single point] |  |
| Cc1ccc(N=C(N)N=C(N)N)c(C)c1 | inconclusive: 11.7 µM [inhibitor, partial curve, poor fit] |  |
| CCN1CCN(C(=O)c2ccc3c(c2)N(Cc2ccccc2)C(=O)c2ccccc2S3=O)CC1 (centres undefined) | inconclusive: 14.7 µM [inhibitor, partial curve, poor fit] |  |
| COc1ccc2ccccc2c1/C=N/Nc1ccc(Cl)c(C(=O)O)c1 | inconclusive: 18.5 µM [inhibitor, single point] |  |
| CN(C)c1ccc(-c2nnc(-c3ccc(S(=O)(=O)C(F)F)cc3)o2)cc1 | inconclusive: 18.5 µM [inhibitor, single point] |  |
| CN1C(=O)SC(Nc2ccccc2)C1=O (centres undefined) | inconclusive: 11.7 µM [inhibitor, single point] |  |
| CCOC(=O)Nc1ccc(C)cc1C | inconclusive: 18.5 µM [inhibitor, single point] |  |
| Cc1cc(C(=O)Nc2ccc(S(=O)(=O)N3CCOCC3)cc2)ccc1[N+](=O)[O-] | inconclusive: 11.7 µM [inhibitor, single point] |  |
| O=C(C[n+]1ccc(C(=O)c2ccccc2)cc1)Nc1ccc(C(F)(F)F)cc1 |  | inactive: -20.3% |
| Cc1ccnc(NC(=O)c2cc(S(=O)(=O)N3CCCCC3)ccc2Cl)c1 | inconclusive: 11.7 µM [inhibitor, single point] |  |
| S=c1[nH]nc(-c2ccco2)n1/N=C/c1ccc(Cl)cc1Cl | inconclusive: 3.7 µM [inhibitor, partial curve, poor fit] |  |
| CC1CCN(c2c(NCC3CCC(C(=O)Nc4ccccn4)CC3)c(=O)c2=O)CC1 (centres undefined) | inconclusive: 9.28 µM [inhibitor, partial curve] |  |
| O=c1c2cn[nH]c2nc(SCc2cc(=O)n3cc(Br)ccc3n2)n1-c1ccc(Br)cc1 |  | inactive: -28.2% |
| O=C(Nc1ccc(F)cc1)N1CCCCCC1 |  | inactive: -20.3% |
| Cc1nc2sccc2c(=O)n1-c1ccccc1Cl | inconclusive: 0.0738 µM [inhibitor, full curve, poor fit] |  |
| O=C(NCc1ccccn1)c1nc(Cn2cc([N+](=O)[O-])cn2)no1 | inconclusive: 6.57 µM [inhibitor, partial curve] |  |
| CCCOP(=O)(c1ccc(N(C)C)cc1)C(O)c1ccc(Br)cc1 (centres undefined) | inconclusive: 0.657 µM [inhibitor, full curve, poor fit] |  |

Among those listed so far, eleven contain fluorine:

| SMILES | Potency | activity change, negative = inhibition |
| --- | --- | --- |
| CC(NC(=O)c1cc(F)c(F)c(F)c1F)c1ccc(-n2ccnc2)cc1 (centres undefined) |  | inactive: -4.17% |
| O=C(Cc1n[nH]c(=O)c2ccccc12)OCC(=O)c1ccc(F)c(F)c1 |  | inactive: 30.6% |
| FC(F)(F)c1ccccc1NC(=S)NN=C1CCCCCC1 | inconclusive: 1.85 µM [inhibitor, full curve] |  |
| Cc1nc2sc(C(c3ccc(F)cc3)N3CCOCC3)c(O)n2n1 (centres undefined) | inconclusive: 10.4 µM [inhibitor, single point] |  |
| COc1cnc(SCCC(F)=C(F)F)[nH]c1=O | inconclusive: 0.117 µM [inhibitor, full curve] |  |
| CCc1nc(CN2CCN(Cc3ccc(F)c(F)c3)C(CCO)C2)c(C)[nH]1 (centres undefined) | inconclusive: 10.4 µM [inhibitor, single point] |  |
| Cc1cc2oc(=O)cc(CN(C)Cc3ccc(OC(F)F)cc3)c2cc1Cl | active: 2.62 µM |  |
| Cc1ccc(F)c(CNC(=O)C2CCC(=O)N(Cc3ccccn3)C2)c1F (centres undefined) | inconclusive: 20.8 µM [inhibitor, single point] |  |
| CN(C)c1ccc(-c2nnc(-c3ccc(S(=O)(=O)C(F)F)cc3)o2)cc1 | inconclusive: 18.5 µM [inhibitor, single point] |  |
| O=C(C[n+]1ccc(C(=O)c2ccccc2)cc1)Nc1ccc(C(F)(F)F)cc1 |  | inactive: -20.3% |
| O=C(Nc1ccc(F)cc1)N1CCCCCC1 |  | inactive: -20.3% |
